# Results deposited as PubChem BioAssay AID504793 (Drosophila RNAi Screening Center, 2011)
# Screen: 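Knock-downs allowing continued mitosis even though DNA is damaged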 (primary screen)
# Cells: Drosophila S2R+ cells
# Reagents: long dsRNA against Drosophila genes, about 0.25 µg dsRNA per well
# Time to read-out: 4 days of dsRNA, then 4 hours of drug before read-out
# Conditions: doxorubicin 0.5 µM for 4 hours to cause double-strand breaks, in cells also given a low, harmless dose of dsRNA against nbs to sensitise the assay
# Measured: 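Mitotic index as the number of phospho-histone H3-positive cells in each well following doxorubicin, given as raw counts without normalisation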
# Direction: mitotic cells: higher = more cells in mitosis, weaker G2 arrest
# Rule for the call: 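Genes are called active only when high mitotic counts were reproduced with independent dsRNAs and mitosis was checked for delay without damage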
# Meaning of the calls: active = confirmed in follow-up tests; inactive = not confirmed
# The deposit covers about 23,000 reagents; shown is a random part of those that have a named target and a result. In the full data, 62 (0.27%) got an active call. 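Calls come from follow-up tests whose scores are not deposited, so confirmed genes may have low counts here; counts are not normalised per plate.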 Raw values are not corrected between plates. Unmarked entries are inactive. Reagents against one gene are numbered here. A plus sign joins genes that one reagent is predicted to hit. No sequences are given here.
gene,reagent,"mitotic cells, replicate 1"
CG12402,1,2
CG12402,2,6
Jhedup,1,7
CG30355,1,13
Vha13,1,10
ea,1,7
ea,2,7
Nop17l,1,6
Nop17l,2,3
CNT1,1,8
CNT1,2,10
EAChm,1,4
ref(2)P,1,4
CG11191,1,12
CG11191,2,3
dgrn,1,10
CG10919,1,5
Obp56a,1,3
Obp56a,2,1
Snx6,1,3
Snx6,2,6
CG42490 (retired record),1,6
CG42490 (retired record),2,8

Copied from the list.
Value for CG11191 #2 under “mitotic cells, replicate 1”: 3
CG12402 #1, mitotic cells, replicate 1 → 2

The results go on:
gene,reagent,"mitotic cells, replicate 1"
peb,1,7
peb,2,7
Nepl11,1,17
Cog8,1,3
CG18666,1,6
mRpL47,1,3
Ldh,1,7
AP-2alpha,1,6
AP-2alpha,2,5
Rap1,1,6
Rap1,2,4
CG3746,1,2
CG3746,2,8
CG8100,1,5
myd,1,14
Rab4 + CG42239,1,8
Csas,1,11
rpr,1,6
PlexA,1,9
ebd1,1,7
ebd1,2,6
pum,1,9
pum,2,3
pum,3,10
pum,4,14
pum,5,4
